The record followed here is paper PMC13458699.

By UniProt entry, the sequences of proteins in these tests, tags left out.
UniProt Q5MIZ7: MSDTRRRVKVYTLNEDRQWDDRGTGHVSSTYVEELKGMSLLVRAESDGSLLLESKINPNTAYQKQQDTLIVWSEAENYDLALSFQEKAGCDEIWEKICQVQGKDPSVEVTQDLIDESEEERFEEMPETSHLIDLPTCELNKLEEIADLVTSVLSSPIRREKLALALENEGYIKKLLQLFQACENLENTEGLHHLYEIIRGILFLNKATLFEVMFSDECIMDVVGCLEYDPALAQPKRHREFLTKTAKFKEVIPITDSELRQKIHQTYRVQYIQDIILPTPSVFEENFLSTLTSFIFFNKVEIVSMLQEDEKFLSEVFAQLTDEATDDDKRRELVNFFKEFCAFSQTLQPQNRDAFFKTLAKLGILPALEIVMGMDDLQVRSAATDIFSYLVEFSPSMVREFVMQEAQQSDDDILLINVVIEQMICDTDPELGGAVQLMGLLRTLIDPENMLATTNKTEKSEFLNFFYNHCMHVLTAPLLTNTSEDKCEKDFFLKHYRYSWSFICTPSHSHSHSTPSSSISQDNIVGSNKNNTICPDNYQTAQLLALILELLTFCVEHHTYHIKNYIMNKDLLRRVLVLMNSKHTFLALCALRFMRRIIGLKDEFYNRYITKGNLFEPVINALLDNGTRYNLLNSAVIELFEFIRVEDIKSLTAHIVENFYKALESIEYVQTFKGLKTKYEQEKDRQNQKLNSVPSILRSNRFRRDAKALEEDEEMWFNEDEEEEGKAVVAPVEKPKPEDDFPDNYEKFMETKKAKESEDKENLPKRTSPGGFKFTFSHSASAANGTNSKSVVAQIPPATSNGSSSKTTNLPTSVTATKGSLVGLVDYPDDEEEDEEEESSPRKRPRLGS

Results are given in words; binding and its absence hold for the method and conditions named. In cells and extracts the contact can be indirect. These calls come from enrichment with a bait or labelling near it, and not all partners need be listed. No binding means not detected with the bait.

This experiment concerns the target T1, CCDC6 (endogenous, RPE1 cells) (human (endogenous in RPE1)) (UniProt Q16204).
T1 sequence: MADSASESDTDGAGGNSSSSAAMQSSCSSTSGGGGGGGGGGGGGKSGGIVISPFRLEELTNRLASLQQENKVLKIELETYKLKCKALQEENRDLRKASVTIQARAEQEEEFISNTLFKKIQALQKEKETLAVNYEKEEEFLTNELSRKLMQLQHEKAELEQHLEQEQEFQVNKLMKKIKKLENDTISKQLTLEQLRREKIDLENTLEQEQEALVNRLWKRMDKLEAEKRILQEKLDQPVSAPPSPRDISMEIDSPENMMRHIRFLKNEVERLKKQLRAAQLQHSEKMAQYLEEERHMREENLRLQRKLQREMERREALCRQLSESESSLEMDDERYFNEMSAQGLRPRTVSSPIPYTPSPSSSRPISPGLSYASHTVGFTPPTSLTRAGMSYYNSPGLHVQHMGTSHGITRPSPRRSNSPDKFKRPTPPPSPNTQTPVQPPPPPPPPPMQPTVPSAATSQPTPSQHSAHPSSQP
The experiment is described as follows: affinity purification with mass spectrometry; IP with an anti-CCDC6 antibody from RPE1 lysates, proteins at endogenous levels; WT compared with CCDC6-/-, FBXO42-/- and PPP4C knock-down (shRNA) cells.

For the substance “PPP4R3B (endogenous, RPE1 cells) (from UniProt Q5MIZ7 1-849)”, the binding result is on record as “no binding”.
